In patent publication US12152077B1, “Immunotherapy targeting tumor neoantigenic peptides” (INSTITUT CURIE, priority 2019, dated 2024):

Tests used:
[1] = test system: TE-exon fusion transcripts; test: PCR and sequencing validation of fusion transcripts in LUAD tumor samples and tumor cell lines; set-up: species or system human; key: The status ‘Yes’ or ‘No’ in the table below indicates the presence or absence of the PCR product on the expected size; The status ‘Yes’ or ‘No’ in the table below indicates the presence or absence of the PCR product on the expected size
H1650 cell line = test: Killing assay (xCELLigence, cell-index); format: cell-based, human; conditions: concluded from killing without external peptide

Sequence | presence of the PCR product on the expected size ([1]; LUAD tumor cell line H1975) | other results
FLIVAEILI | No; No; No; No; No; No | –
FLGTRVTRV | No; No; No; No; No; No | –
RLLHLESFL | Yes; Yes; Yes; Yes; Yes; Yes | –
AMDGKELSL | No; No; No; No; No; yes | –
MLMKTVWQA | Yes | natural expression and presentation of peptide by H1650 LUAD tumor cell line (H1650 cell line): naturally expressed and presented; presence of the PCR product on the expected size ([1]; LUAD tumor cell line A549): Yes; presence of the PCR product on the expected size ([1]; LUAD tumor cell line H1299): No; presence of the PCR product on the expected size ([1]; LUAD tumor cell line H1650): No; presence of the PCR product on the expected size ([1]; LUAD tumor cell line H2052): No; presence of the PCR product on the expected size ([1]; LUAD tumor cell line HCC827): Yes
AILPKANTV | No; No; No; No; No; No | –
RLADHLSFC | No; Yes; Yes; No; No; No | –
YLPYFLKSL | Yes; No; No; Yes; No; Yes | –
